Laboratory results: the supplement of paper PMC12593923
Counter-ions that a name gives are not always drawn. Some well-known active drugs show little effect in this data set, so a weak value is uncertain.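 All three lines are high-grade serous ovarian cancer cells differing in chemosensitivity, with OVCAR3 described as the chemosensitive one. Toxicity was scaled between DMSO vehicle wells and fully lysed wells, the score derives from a fitted multi-dose response curve, and the authors counted a score above 5 as drug sensitivity.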

Columns and labels:
Assay in all cases: drug sensitivity score (DSS2, cytotoxicity, CellTox Green); higher = more cytotoxic / more sensitive; extreme values may be limits of the assay
Conditions in all cases: 72 h; doses 0.5, 1, 5 µM
OVCAR4 = tested on: OVCAR4
Kuramochi = tested on: Kuramochi
OVCAR3 = tested on: OVCAR3

Row | SMILES | drug sensitivity score (OVCAR4) | drug sensitivity score (Kuramochi) | drug sensitivity score (OVCAR3)
1 | O=C(O)CCNC(=O)c1ccc(/N=N/c2ccc(O)c(C(=O)O)c2)cc1 [Balsalazide] | 0 DSS | 0.2 DSS | 0 DSS
2 | COc1ccccc1OCCNCC(O)COc1cccc2[nH]c3ccccc3c12 (stereo not given) [Carvedilol] | 0 DSS | 0 DSS | 0 DSS
3 | C[C@H](CCC(=O)NCCS(=O)(=O)O)[C@H]1CC[C@H]2[C@@H]3CC[C@@H]4C[C@H](O)CC[C@]4(C)[C@H]3C[C@H](O)[C@]12C [Taurodeoxycholic acid (sodium hydrate)] | 0 DSS | 0 DSS | 0 DSS
4 | COc1c(C)c2c(c(O)c1C/C=C(\C)CCC(=O)OCCN1CCOCC1)C(=O)OC2 [Mycophenolate Mofetil] | 0 DSS | 0 DSS | 0 DSS
5 | C[n+]1c2ccccc2nc2ccccc21 [Phenazine (methylsulfate)] | 0 DSS | 0 DSS | 0 DSS
6 | COc1c(OCCCN2CCOCC2)ccc2c3n(c(=NC(=O)c4cnc(N)nc4)nc12)CCN3 [Copanlisib (dihydrochloride)] | 2.6 DSS | 3.3 DSS | 3 DSS
7 | C/C=C(\C)C(=O)O[C@H]1[C@H](OC(C)=O)[C@]2(CO)[C@H](O)C[C@]3(C)C(=CC[C@@H]4[C@@]5(C)CC[C@H](O[C@@H]6O[C@H](C(=O)O)[C@@H](O[C@H]7O[C@@H](CO)[C@H](O)[C@@H](O)[C@@H]7O)[C@H](O)[C@H]6O[C@@H]6OC(CO)[C@@H](O)[C@H](O)[C@H]6O)[C@](C)(CO)[C@@H]5CC[C@]43C)[C@@H]2CC1(C)C (stereo not given in full) [Escin] | 0 DSS | 0.1 DSS | 0.9 DSS
8 | CCN1CCN(Cc2ccc(Nc3ncc(F)c(-c4cc(F)c5nc(C)n(C(C)C)c5c4)n3)nc2)CC1 [Abemaciclib (methanesulfonate)] | 0 DSS | 0 DSS | 0 DSS
9 | CC(=O)n1c2c(c3ccccc31)CCCC2=O [MS7972] | 0 DSS | 0 DSS | 0 DSS
10 | Nc1nc(F)nc2c1ncn2[C@@H]1O[C@H](CO)[C@@H](O)[C@@H]1O [Fludarabine] | 0.1 DSS | 0 DSS | 0 DSS
11 | COC1=C[C@@H]2[C@@H]3Cc4ccc(OC)c(O)c4[C@]2(CCN3C)CC1=O [Sinomenine] | 0 DSS | 0 DSS | 0 DSS
12 | CCOC(=O)c1ccc(C#Cc2ccc3c(c2)C(C)(C)CCS3)nc1 [Tazarotene] | 0 DSS | 0 DSS | 0 DSS
13 | O=C(O)Cc1ccccc1Nc1c(Cl)cccc1Cl [Diclofenac (diethylamine)] | 0 DSS | 0 DSS | 0 DSS
14 | CC(C)NC(=O)COc1cccc(-c2nc(Nc3ccc4[nH]ncc4c3)c3ccccc3n2)c1 [Belumosudil] | 1.9 DSS | 0 DSS | 0.2 DSS
15 | CC(C)C[C@H](NC(=O)[C@H](Cc1ccccc1)NC(=O)c1cnccn1)B(O)O [Bortezomib] | 3.3 DSS | 7 DSS | 1.8 DSS
16 | O=C1CN(/N=C/c2ccc(-c3ccc([N+](=O)[O-])cc3)o2)C(=O)N1 [Dantrolene (sodium hemiheptahydrate)] | 0 DSS | 0 DSS | 0 DSS
17 | O=C(O)CCCCC1CCSS1 (stereo not drawn) [α-Lipoic Acid] | 0 DSS | 0 DSS | 0 DSS
18 | C=CCN1C[C@H](C(=O)N(CCCN(C)C)C(=O)NCC)C[C@@H]2c3cccc4[nH]cc(c34)C[C@H]21 [Cabergoline] | 0 DSS | 0 DSS | 0 DSS
19 | CC(c1cc2ccccc2s1)N(O)C(N)=O (stereo not given) [Zileuton] | 0 DSS | 0 DSS | 0 DSS
20 | O=C([O-])CN(CCN(CC(=O)[O-])CC(=O)O)CC(=O)[O-].[Na+].[Na+].[Na+] [Ethylenediaminetetraacetic acid (trisodium salt)] | 0 DSS | 0 DSS | 0 DSS
21 | CC(C)(C)C[C@@H]1N[C@@H](C(=O)N[C@H]2CC[C@H](O)CC2)[C@H](c2cccc(Cl)c2F)[C@]12C(=O)Nc1cc(Cl)ccc12 [MI-773] | 0 DSS | 0 DSS | 0 DSS
22 | CN(C)CCCCC(=O)Nc1ccc(NC(=S)NC(=O)c2ccc(C(C)(C)C)cc2)cc1 [Tenovin-6] | 0 DSS | 0 DSS | 0 DSS
23 | CC(=O)O[C@H]1C[C@H](O[C@H]2[C@@H](O)C[C@H](O[C@H]3[C@@H](O)C[C@H](O[C@H]4CC[C@@]5(C)[C@H](CC[C@@H]6[C@@H]5C[C@@H](O)[C@]5(C)[C@@H](C7=CC(=O)OC7)CC[C@]65O)C4)O[C@@H]3C)O[C@@H]2C)O[C@H](C)[C@H]1O[C@@H]1O[C@H](CO)[C@@H](O)[C@H](O)[C@H]1O [Lanatoside C] | 6.1 DSS | 0.7 DSS | 2.9 DSS

Exported with tabs: part of the list above
Row	SMILES	drug sensitivity score (OVCAR4)	drug sensitivity score (Kuramochi)	drug sensitivity score (OVCAR3)
20	O=C([O-])CN(CCN(CC(=O)[O-])CC(=O)O)CC(=O)[O-].[Na+].[Na+].[Na+] [Ethylenediaminetetraacetic acid (trisodium salt)]	0 DSS	0 DSS	0 DSS
21	CC(C)(C)C[C@@H]1N[C@@H](C(=O)N[C@H]2CC[C@H](O)CC2)[C@H](c2cccc(Cl)c2F)[C@]12C(=O)Nc1cc(Cl)ccc12 [MI-773]	0 DSS	0 DSS	0 DSS

(listing goes on)

Row | SMILES | drug sensitivity score (OVCAR4) | drug sensitivity score (Kuramochi) | drug sensitivity score (OVCAR3)
24 | CC(=O)OCC(=O)[C@@]1(O)[C@H](C)C[C@H]2[C@@H]3CCC4=CC(=O)C=C[C@]4(C)[C@@]3(F)[C@@H](O)C[C@@]21C [Dexamethasone acetate] | 0 DSS | 0 DSS | 0 DSS
25 | CN(C)c1nc(N(C)C)nc(N(C)C)n1 [Altretamine] | 0 DSS | 0.4 DSS | 1 DSS
26 | CC[C@H](C)C(=O)O[C@H]1C[C@H](O)C=C2C=C[C@H](C)[C@H](CC[C@@H](O)C[C@@H](O)CC(=O)O)[C@H]21 [Pravastatin (sodium)] | 0 DSS | 0 DSS | 0 DSS
27 | OCc1ccc(-c2ccc(-c3ccc(CO)s3)o2)s1 [RITA] | 1.8 DSS | 5.4 DSS | 6.7 DSS
28 | O=C(O)Cc1ccccc1Nc1c(Cl)cccc1Cl [Diclofenac (potassium)] | 0 DSS | 0 DSS | 0 DSS
29 | NC(=O)CCC(N)C(=O)O (racemic) [DL-Glutamine] | 0 DSS | 0 DSS | 0 DSS
30 | COc1cc2c(cc1OC(C)C)[C@H](c1ccc(Cl)cc1)N(c1ccc(N(C)C[C@H]3CC[C@H](N4CCN(C)C(=O)C4)CC3)cc1)C(=O)C2 [NVP-CGM097 (sulfate)] | 0 DSS | 0 DSS | 0 DSS
31 | COc1ccc2cc([C@H](C)C(=O)O)ccc2c1 [Naproxen] | 0 DSS | 0 DSS | 0 DSS
32 | N[C@@H](CCC(=O)O)C(=O)O [L-Glutamic acid] | 0 DSS | 0 DSS | 0 DSS
33 | OC1(c2ccc(Cl)c(C(F)(F)F)c2)CCN(CCCC(c2ccc(F)cc2)c2ccc(F)cc2)CC1 [Penfluridol] | 1.2 DSS | 1.1 DSS | 0.7 DSS
34 | Cc1cc2c(C(C)C)c(O)c(O)c(C=O)c2c(O)c1-c1c(C)cc2c(C(C)C)c(O)c(O)c(C=O)c2c1O [Gossypol] | 0 DSS | 0 DSS | 0 DSS
35 | Cn1c(CCCC(=O)O)nc2cc(N(CCCl)CCCl)ccc21 [Bendamustine (hydrochloride)] | 0 DSS | 0 DSS | 0 DSS
36 | Cc1nc(Nc2ncc(C(=O)Nc3c(C)cccc3Cl)s2)cc(N2CCN(CCO)CC2)n1 [Dasatinib] | 0 DSS | 0 DSS | 0 DSS
37 | CSc1ccc2c(c1)N(CCC1CCCCN1C)c1ccccc1S2 (stereo not given) [Thioridazine (hydrochloride)] | 0 DSS | 0 DSS | 0 DSS
38 | COc1cc2nccc(Oc3ccc(NC(=O)C4(C(=O)Nc5ccc(F)cc5)CC4)cc3)c2cc1OC [Cabozantinib (S-malate)] | 0 DSS | 0 DSS | 0 DSS
39 | CC(=O)O[C@]1(C(C)=O)CC[C@H]2[C@@H]3CCC4=CC(=O)CCC4=C3[C@@H](c3ccc(N(C)C)cc3)C[C@@]21C [Ulipristal acetate] | 0 DSS | 0 DSS | 0 DSS
40 | CC1=C(CC(=O)O)c2cc(F)ccc2/C1=C\c1ccc([S+](C)[O-])cc1 (stereo not given) [Sulindac] | 0 DSS | 0 DSS | 0 DSS
41 | Cc1nc(C)c(C)nc1C [Ligustrazine] | 0 DSS | 0 DSS | 0 DSS
42 | N[C@@H](CC(=O)N1CCn2c(nnc2C(F)(F)F)C1)Cc1cc(F)c(F)cc1F [Sitagliptin (phosphate)] | 0 DSS | 0 DSS | 0 DSS
43 | C#CCC(Cc1cnc2nc(N)nc(N)c2n1)c1ccc(C(=O)N[C@@H](CCC(=O)O)C(=O)O)cc1 (stereo not given in full) [Pralatrexate] | 0 DSS | 0 DSS | 0 DSS
44 | CC1(C)[C@@H](O)CC[C@]2(C)[C@H]3C(=O)C=C4[C@H]5C[C@@](C)(C(=O)O)CC[C@]5(C)CC[C@@]4(C)[C@]3(C)CC[C@@H]12 [18α-Glycyrrhetinic acid] | 0 DSS | 0 DSS | 0 DSS
45 | FC(F)(F)c1ccc(CNc2ccc(Cc3c[nH]c4ncc(Cl)cc34)cn2)cn1 [Pexidartinib (hydrochloride)] | 0 DSS | 0 DSS | 0 DSS
